# Source: PubChem BioAssay AID256 (DTP/NCI, 2004)
# The list shows only some results of the screen, not a fair sample: it is rich in T/C values a quarter to a half above the control, in often repeated tests (any T/C) and in doses without a T/C. Further doses and runs are listed elsewhere. T/C gives the treated animals as a percentage of the vehicle group. Some doses have a count of surviving animals in place of a T/C: the source files T/C as zero there, which appears to mark a toxic dose or a test without result, not a measured value. Some doses without a T/C left all or most animals alive at the check, yet need not have been tolerated: the source hardly ever lists a survival T/C far under the control, and the zero likely stands for such cases as well. Survivors were counted at the toxicity check, usually on the fifth day, unless a day is given; later deaths do not show. Schedules are NCI's codes, read here as Q, the interval in days (D) or hours (H), X, the number of doses. Some doses were run more than once; the results are listed from low to high. Where survival is the endpoint, this PubChem deposit counts one and a half times the control or more as active, and values a quarter to a half above the control carry no call in these data; other NCI protocols may use other cut-offs. Some T/C values are followed by the survivors on the day toxicity was checked, most often the fifth; where none is given, no animal had died by that day.
# Tested on: CD2F1 mice, L1210 leukemia ip, survival T/C
# Assay: NCI In Vivo Anticancer Drug Screen. Data for tumor model L1210 Leukemia (intraperitoneal) in CD2F1 (CDF1) mice
# Details: higher T/C = longer survival
# Outline: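 Tumor-bearing mice (transplanted tumor) were split into treated and vehicle control groups, and the measured endpoint of each treated group was divided by that of its vehicle controls.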
# [1] = T/C endpoint: mean survival time, dose: 100.0 mg/kg/injection, schedule: Q04DX003 (ip), vehicle: saline with Tween-80
# [2] = T/C endpoint: mean survival time, dose: 200.0 mg/kg/injection, schedule: Q01DX009 (ip), vehicle: saline with Tween-80
# [3] = T/C endpoint: mean survival time, dose: 400.0 mg/kg/injection, schedule: Q01DX009 (ip), vehicle: saline with Tween-80
# [4] = T/C endpoint: median survival time, dose: 100.0 mg/kg/injection, schedule: Q04DX003 (ip), vehicle: saline with Tween-80
# [5] = T/C endpoint: mean survival time, dose: 200.0 mg/kg/injection, schedule: Q04DX003 (ip), vehicle: saline with Tween-80
# [6] = T/C endpoint: mean survival time, dose: 400.0 mg/kg/injection, schedule: Q04DX003 (ip), vehicle: saline with Tween-80
# [7] = T/C endpoint: mean survival time, dose: 100.0 mg/kg/injection, schedule: Q01DX009 (ip), vehicle: saline with Tween-80
compound,measurement,setting,value
CCCCCCCCSC#N,survivor count,"T/C endpoint: mean survival time, dose: 100.0 mg/kg/injection, schedule: Q01DX001 (ip), vehicle: carboxymethylcellulose (CMC)",1 of 4
same,survivor count,"T/C endpoint: mean survival time, dose: 200.0 mg/kg/injection, schedule: Q01DX001 (ip), vehicle: carboxymethylcellulose (CMC)",0 of 4
same,survivor count,"T/C endpoint: mean survival time, dose: 400.0 mg/kg/injection, schedule: Q01DX001 (ip), vehicle: carboxymethylcellulose (CMC)",0 of 4
CCCCNC(=O)C1CC2c3c(Br)ccc4c3C(CC2N(C)C1)CN4C(C)=O (configuration not stated),survivor count,[1],6 of 6
CN(C)N=Nc1ccc([N+](=O)[O-])cc1,T/C,"T/C endpoint: mean survival time, dose: 266.0 mg/kg/injection, schedule: Q01DX009 (ip), vehicle: Klucel (hydroxypropylcellulose) (HPC)",125 % of control
same,survivor count,"T/C endpoint: mean survival time, dose: 400.0 mg/kg/injection, schedule: Q01DX009 (ip), vehicle: Klucel (hydroxypropylcellulose) (HPC)",5 of 6 and 6 of 6
CCc1ncc(CO)n1Cc1ccccc1,survivor count,[2],4 of 6
same,survivor count,[3],0 of 6
CCC1(O)CC2CN(CCc3c([nH]c4ccccc34)C(C(=O)OC)(c3cc4c(cc3OC)N(C)C3C(O)(C(=O)NCCO)C(O)C5(CC)C=CCN6CCC43C65)C2)C1 (configuration not stated),T/C,"T/C endpoint: mean survival time, dose: 0.13 mg/kg/injection, schedule: Q01DX009 (ip), vehicle: water",127 % of control
same,T/C,"T/C endpoint: mean survival time, dose: 0.22 mg/kg/injection, schedule: Q01DX009 (ip), vehicle: water",125 % of control
same,survivor count,"T/C endpoint: mean survival time, dose: 0.6 mg/kg/injection, schedule: Q01DX009 (ip), vehicle: water",4 of 6
same,survivor count,"T/C endpoint: mean survival time, dose: 1.0 mg/kg/injection, schedule: Q01DX009 (ip), vehicle: water",0 of 6
same,survivor count,"T/C endpoint: mean survival time, dose: 4.0 mg/kg/injection, schedule: Q04DX003 (ip), vehicle: water",4 of 6
Cc1c2ccccc2cc2c1ccc1cccc(F)c12,survivor count,[4],3 of 3
CCOC(=S)S,survivor count,"T/C endpoint: mean survival time, dose: 200.0 mg/kg/injection, schedule: Q04DX003 (ip), vehicle: saline",3 of 6
same,survivor count,"T/C endpoint: mean survival time, dose: 400.0 mg/kg/injection, schedule: Q01DX009 (ip), vehicle: saline sonified",2 of 6
C1=C[S+](c2ccccc2)C(c2ccccc2)c2ccccc21 (configuration not stated),survivor count,"T/C endpoint: mean survival time, dose: 50.0 mg/kg/injection, schedule: Q04DX002 (ip), vehicle: Klucel (hydroxypropylcellulose) (HPC)",4 of 6
O=S(=O)(C(Br)CBr)C(Br)CBr (configuration not stated),survivor count,[5],0 of 6
same,survivor count,[6],0 of 6
CC#CC#CC(=O)c1ccccc1,survivor count,"T/C endpoint: mean survival time, dose: 20.0 mg/kg/injection, schedule: Q01DX001 (ip), vehicle: saline",2 of 6
same,survivor count,"T/C endpoint: mean survival time, dose: 40.0 mg/kg/injection, schedule: Q01DX001 (ip), vehicle: saline",0 of 6
same,survivor count,"T/C endpoint: mean survival time, dose: 80.0 mg/kg/injection, schedule: Q01DX001 (ip), vehicle: saline",0 of 6
O=C(N1CCOCC1)C1(c2ccccc2)CCNCC1,survivor count,"T/C endpoint: mean survival time, dose: 200.0 mg/kg/injection, schedule: Q01DX009 (ip), vehicle: saline",0 of 6
NC1CCCCC1N.O=C1C=CC(=C(c2ccc(O)cc2)c2ccccc2S(=O)(=O)[O-])C=C1.O=[N+]([O-])[O-].[Pt+4],T/C,"T/C endpoint: median survival time, dose: 0.78 mg/kg/injection, schedule: Q04DX003 (ip), vehicle: saline",137 % of control
same,survivor count,"T/C endpoint: median survival time, dose: 12.5 mg/kg/injection, schedule: Q04DX003 (ip), vehicle: saline with Tween-80",6 of 6
same,survivor count,"T/C endpoint: median survival time, dose: 25.0 mg/kg/injection, schedule: Q04DX003 (ip), vehicle: saline with Tween-80",6 of 6
same,survivor count,"T/C endpoint: median survival time, dose: 25.0 mg/kg/injection, schedule: Q04DX003 (ip), vehicle: saline",6 of 6
same,survivor count,"T/C endpoint: median survival time, dose: 50.0 mg/kg/injection, schedule: Q04DX003 (ip), vehicle: saline with Tween-80",4 of 6
same,survivor count,[4],2 of 6
same,survivor count,"T/C endpoint: median survival time, dose: 200.0 mg/kg/injection, schedule: Q04DX003 (ip), vehicle: saline with Tween-80",0 of 6
CCOC(=O)c1cnc(SCc2ccccc2Cl)nc1N1CC1,T/C,"T/C endpoint: mean survival time, dose: 42.5 mg/kg/injection, schedule: Q01DX009 (ip), vehicle: saline with Tween-80",126 % of control
same,survivor count,"T/C endpoint: mean survival time, dose: 63.75 mg/kg/injection, schedule: Q01DX009 (ip), vehicle: saline with Tween-80",3 of 6
CCCCNC(=O)C1CC2c3cccc4[nH]cc(c34)CC2N(C)C1 (configuration not stated),survivor count,[5],3 of 6
CCOC(=O)CCC(NC(=O)c1ccc(NCc2ccc3nc(N)nc(N)c3c2C)cc1)C(=O)OCC (configuration not stated),T/C,"T/C endpoint: mean survival time, dose: 0.5 mg/kg/injection, schedule: Q01DX001 (ip), vehicle: saline + alcohol",134 [5 of 6 alive] and 136 % of control [5 of 6 alive]
same,T/C,"T/C endpoint: mean survival time, dose: 1.0 mg/kg/injection, schedule: Q01DX001 (ip), vehicle: saline + alcohol",146 % of control [5 of 6 alive]
Ic1cccs1,survivor count,"T/C endpoint: mean survival time, dose: 200.0 mg/kg/injection, schedule: Q01DX001 (ip), vehicle: saline",2 of 4
same,survivor count,"T/C endpoint: mean survival time, dose: 400.0 mg/kg/injection, schedule: Q01DX001 (ip), vehicle: saline",0 of 4
NCCCCC(N)C(=O)O (configuration not stated),survivor count,"T/C endpoint: median survival time, dose: 12.5 mg/kg/injection, schedule: Q04DX002 (ip), vehicle: saline",1 of 3
same,survivor count,"T/C endpoint: median survival time, dose: 100.0 mg/kg/injection, schedule: Q04DX002 (ip), vehicle: saline",0 of 3
same,survivor count,"T/C endpoint: median survival time, dose: 200.0 mg/kg/injection, schedule: Q04DX002 (ip), vehicle: saline",0 of 3
same,survivor count,"T/C endpoint: median survival time, dose: 400.0 mg/kg/injection, schedule: Q04DX002 (ip), vehicle: saline",0 of 3
Cc1cc(C)c(CCl)cc1CCl,survivor count,"T/C endpoint: mean survival time, dose: 50.0 mg/kg/injection, schedule: Q01DX009 (ip), vehicle: saline with Tween-80",0 of 6
same,survivor count,[1],0 of 6
same,survivor count,[5],0 of 6
CO[C@@]12[C@@H]3N[C@@H]3CN1C1=C(C(=O)C(Nc3nc(C)c(C)s3)=C(C)C1=O)[C@@H]2COC(N)=O,T/C,"T/C endpoint: median survival time, dose: 1.5 mg/kg/injection, schedule: Q01DX001 (ip), vehicle: distilled water + Tween-80",126 % of control
same,T/C,"T/C endpoint: median survival time, dose: 12.0 mg/kg/injection, schedule: Q01DX001 (ip), vehicle: distilled water + Tween-80",133 % of control
same,survivor count,"T/C endpoint: median survival time, dose: 48.0 mg/kg/injection, schedule: Q01DX001 (ip), vehicle: distilled water + Tween-80",3 of 6
C[N+](C)(C)/N=C/C=C/c1ccccc1,survivor count,[7],1 of 3
same,survivor count,[2],0 of 3
CCc1ccc2ccccc2c1N,survivor count,"T/C endpoint: mean survival time, dose: 100.0 mg/kg/injection, schedule: Q01DX001 (ip), vehicle: saline with Tween-80",3 of 6
same,survivor count,"T/C endpoint: mean survival time, dose: 400.0 mg/kg/injection, schedule: Q01DX001 (ip), vehicle: saline with Tween-80",2 of 6
O=C(CSC1=NCCN1)c1ccccc1,survivor count,[7],0 of 6
same,survivor count,[2],0 of 6
same,survivor count,[3],0 of 6
CCOc1ccc(NC(=O)C2CCC(C)(C(=O)O)C2(C)C)cc1 (configuration not stated),survivor count,[5],3 of 6
same,survivor count,[6],1 of 6
Brc1ccc2c(c1)C(Br)c1ccccc1-2 (configuration not stated),survivor count,[6],5 of 6
N=C(N)c1ccc(NC(=O)c2ccc(C(=O)Nc3ccc(C(=N)N)cc3)c(N)c2)cc1,T/C,"T/C endpoint: median survival time, dose: 50.0 mg/kg/injection, schedule: Q01DX009 (ip), vehicle: saline with Tween-80",125 % of control
same,survivor count,"T/C endpoint: median survival time, dose: 400.0 mg/kg/injection, schedule: Q01DX009 (ip), vehicle: saline with Tween-80",5 of 6
CC(=O)c1cc([N+](=O)[O-])ccc1O,survivor count,[5],3 of 6
same,survivor count,[6],1 of 6
COC(=O)c1ccc(=O)c2nc3/c(=C/O)c(O)cc(=O)c3[nH]c12,survivor count,"T/C endpoint: mean survival time, dose: 20.0 mg/kg/injection, schedule: Q04DX003 (ip), vehicle: saline with Tween-80",3 of 6
CC1=CC(=O)C(C(=O)CC(O)(C(F)(F)F)C(F)(F)F)C(=O)O1 (configuration not stated),survivor count,[7],4 of 6
same,survivor count,[2],4 of 6
same,survivor count,[3],3 of 6
CS/C([S-])=N/N=C/c1ccccn1.[Cl][Pt+],survivor count,[6],2 of 6
OCC1OC(n2cc(I)c3c2ncn2nnnc32)C(O)C1O (configuration not stated),survivor count,"T/C endpoint: mean survival time, dose: 6.25 mg/kg/injection, schedule: Q01DX005 (ip), vehicle: water",3 of 3
same,survivor count,"T/C endpoint: mean survival time, dose: 12.5 mg/kg/injection, schedule: Q01DX005 (ip), vehicle: water",3 of 3
same,survivor count,"T/C endpoint: mean survival time, dose: 50.0 mg/kg/injection, schedule: Q01DX005 (ip), vehicle: water",0 of 3
same,survivor count,"T/C endpoint: mean survival time, dose: 100.0 mg/kg/injection, schedule: Q01DX005 (ip), vehicle: water",0 of 3
same,survivor count,"T/C endpoint: mean survival time, dose: 200.0 mg/kg/injection, schedule: Q01DX005 (ip), vehicle: water",0 of 3
O=C(CNC(=O)c1ccccc1)N/N=C/c1cccc([N+](=O)[O-])c1,survivor count,[2],6 of 6
